Data as given in ChEMBL document CHEMBL4842367, “Strategies toward Discovery of Potent and Orally Bioavailable Proteolysis Targeting Chimera Degraders of Androgen Receptor for the Treatment of Prostate Cancer” (J Med Chem, 2021).

System: LNCaP
Test: Growth inhibition of human LNCaP cells assessed as cell viability measured after 4 days in presence of R1881 by WST-8 assay
Assay type: functional, cell-based
Settings: 96 h
In short: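 LNCaP and VCaP cells exposed to compounds for 4 days in charcoal-stripped medium containing 0.1 nM R1881; viability read by WST-8 assay.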

IC50: 133 nM
Structure (SMILES): CNC(=O)c1ccc(N2C(=S)N(c3ccc(C#N)c(C(F)(F)F)c3)C(=O)C2(C)C)cc1F [ENZALUTAMIDE]
